From patent US20220193133A1 come the findings set out here.

Results are given in words; binding and its absence hold for the method and conditions named. Some entries that bind do so weakly or less than the wild type. For some assays here: Sequences can lack the tags named with a protein.

The target of assay [1] is D04-his tagged VHH (humanized D04). Description: Octet (BLI) specificity analysis.
Assay [2] concerns the target B11 protein (humanized B11 VHH as ELISA antigen). The experiment in a line: periplasmic extract ELISA after phage panning.
Assay [3] shares this target. Description: periplasmic extract ELISA, absorbance 450 nm, single point.
The target of assay [4] is humanized B11 VHH CAR (hyLYSO_CW_P01_B11) on Nurkat cells. The experiment in a line: FACS, VHH-Fc on CAR Nurkat cells, anti-Fc APC.
Assay [5] has the same target. Description: FACS, biotinylated VHH-Fc on CAR Nurkat cells, streptavidin-APC.
The target is the same in assay [6]. Description: flow cytometry, biotinylated protein (50 nM) on CAR Nurkat cells, streptavidin-APC, % positive cells.
Assay [7] has the same target. The experiment in a line: flow cytometry, VHH-Fc on CAR Nurkat cells, 3-fold dilutions 50 to 0.02 nM, anti-Fc APC, %Fc positive cells.
For assay [8] the target is unchanged. The experiment in a line: flow cytometry after overnight incubation of Nurkat cells with 10 nM biotinylated protein, streptavidin-APC, % positive cells.

B1: AMD88 (huD04_CNTY1_D10 anti-idiotype VHH IgG1-Fc fusion) (Fc fusion, not shown: a dimerising Fc or GST)
chain: EVQLLESGGGLVQPGGSLRLSCAASGRTSSNYVIGWYRQAPGKEREFVSAISGGGSTYYADSVKGRFTISRDNSKNTLYLQMNSLRAEDTAVYYCATRIYTARGAGDYWGQGTQVTVSS
B1: the binding entry in assay [1] was “binds”.

B2: huB11_CNTY3+4_A02 anti-idiotype VHH (periplasmic extract) (VHH)
VHH: EVQLLESGGGLVQPGGSLRLSCAASGRTYTGSAMGWYRQAPGKERELVSAISTGGETYYADSVKGRFTISRDNSKNTLYLQMNSLRAEDTAVYYCAAGYVGLPYTYRPATSRRGYTYWGQGTQVTVSS
Turning to B2, the binding result in assay [2] and in assay [3] was “binds” in each case.

B3: AMD71 (huB11_CNTY3+4_A02 anti-idiotype VHH IgG1-Fc fusion) (Fc fusion, not shown: a dimerising Fc or GST)
chain: B2 VHH
Turning to B3, the binding result in assay [4], in assay [5], in assay [6], in assay [7] and in assay [8] was “binds” each time.

B4: huB11_CNTY3+4_A01 anti-idiotype VHH (periplasmic extract) (VHH)
VHH: EVQLLESGGGLVQPGGSLRLSCAASGFTFSSYSIGWYRQAPGKERELVSVISSGGSTYYADSVKGRFTISRDNSKNTLYLQMNSLRAEDTAVYYCAASDWSYSWITYTGTWRLYEYWGQGTQVTVSS
Take B4: the binding entry in assay [2] and in assay [3] was “binds” throughout.

B5: AMD73 (Fc fusion)
VHH-Fc: B4 VHH
For B5, in assay [7], the binding result was “binds”.
